Results as given in PubChem BioAssay AID493014 (National Center for Advancing Translational Sciences (NCATS), 2011).
In all, about 340,000 compounds went through this assay and about 170 (0.05%) were called active. The inconclusive results got no clear call from the source; some entries with a clear call stand among them for comparison. Calls follow the shape of the dose curve; as a rule, active = well fitted inhibition curve with a large enough effect in the signal ratio, with a control signal flat (not every such curve was filed as active); inconclusive = small, poorly fitted or top-dose-only effect, or effect the other way, or a change in a side signal; inactive = flat fitted curve, though single readings scatter; the % refers to the signal ratio. Where the call is inconclusive, the potency comes from a doubtful curve fit.

Experiment: qHTS Assay to Find Inhibitors of Chronic Active B-Cell Receptor Signaling;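 as to activity change, negative = inhibition: plate controls were basal doxycycline-induced cells for no effect and cells given 10 µM MG132 for full effect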
Conditions: ABC-DLBCL IkBa-CBG/CBR reporter, luminescence ratio (green luciferase fused to IkBa over red control in TMD8 lymphoma cells), 4 h
In short: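 TMD8 ABC-DLBCL cells carrying doxycycline-inducible green luciferase fused to IkappaBalpha plus unfused red luciferase were exposed to compounds (up to 46 uM) for 4 hrs at 37C. Activity came from the overlap-corrected green/red luminescence ratio.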

[1] = activity change, negative = inhibition: at 46.1 µM (top of the series)
Potency is read from the fitted curve at half-maximal effect.

Nc1ncnc2c1ncn2[C@@H]1O[C@H](COS(=O)(=O)O)[C@@H](O)[C@H]1O
Potency [1]: inconclusive: 13 µM [rising, partial curve, poor fit]

COc1ccc2c(=O)c(C(=O)NCc3ccccc3)c[nH]c2c1
activity change, negative = inhibition [1]: inconclusive: 6.07%

Cc1ccc(OCC(=O)NNC(=O)c2ccccc2OCc2c(C)noc2C)cc1
activity change, negative = inhibition [1]: inconclusive: 1.18%

N#CCCN(C(=O)COC(=O)CNS(=O)(=O)c1ccc2ccccc2c1)c1ccccc1
activity change, negative = inhibition [1]: inconclusive: 1.09%

O=C(O)c1ccccc1NC(=O)C(Cc1ccccc1)N1C(=O)c2ccccc2C1=O (centres undefined)
activity change, negative = inhibition [1]: inconclusive: 7.23%

COc1nc(C)ccc1-c1noc(-c2cccs2)n1
activity change, negative = inhibition [1]: inconclusive: -2.18%

CCOC(=O)c1c(C)oc2c1c(C(c1ccccc1)N1CCOCC1)c(O)c1ccccc12 (centres undefined)
activity change, negative = inhibition [1]: inconclusive: 23.1%

CN(C)/C=N/C(=S)Nc1ccc(Cl)cc1
activity change, negative = inhibition [1]: inconclusive: 5.8%

CCc1cccc(C)c1NC(=O)CCCC(=O)O
activity change, negative = inhibition [1]: inconclusive: 14.5%

CN(Cc1ccccc1F)C(=O)CNC(=O)Cc1cccc2ccccc12
Potency [1]: inconclusive: 35.5 µM [falling, partial curve, poor fit]

CC(C)Nc1nnc(SC(C)C(=O)N(C)C2CCCCC2)s1 (centres undefined)
activity change, negative = inhibition [1]: inconclusive: -1.17%

CC(=O)c1ccc(NC(=O)N2CCCC(C(=O)c3ccc4c(c3)OCO4)C2)cc1 (centres undefined)
activity change, negative = inhibition [1]: inactive

COc1ccc(OCC(=O)NCCS(=O)(=O)N2CCN(c3ccc(F)cc3)CC2)cc1
Potency [1]: inconclusive: 35.5 µM [falling, single point]

O=C(COc1ccc(F)c(Cl)c1)c1ccc[nH]1
activity change, negative = inhibition [1]: inactive

O=C(Nc1ccc(N2CCOCC2)cc1)c1c(F)cccc1Cl
Potency [1]: inconclusive: 2.82 µM [falling, full curve]

COc1ccc(-c2nnn(Cc3ccccc3)n2)cc1OC
activity change, negative = inhibition [1]: inactive

CNC(=O)c1ccc(-c2ccc(OC)cc2)s1
Potency [1]: inconclusive: 17.8 µM [falling, partial curve, poor fit]

O=C(COc1ccc(F)cc1)NC1CC(=O)N(c2ccc3c(c2)OCCO3)C1 (centres undefined)
activity change, negative = inhibition [1]: inactive

CC(C)(C)c1ccc(-n2ncc3c2CCCC3NC(=O)CN2CCCCC2=O)cc1 (centres undefined)
activity change, negative = inhibition [1]: inactive

Cc1ccccc1CS(=O)(=O)c1snnc1C
activity change, negative = inhibition [1]: inconclusive: 1.36%

CCC(C)NCCOc1cc(C)cc(C)c1C (centres undefined)
activity change, negative = inhibition [1]: inconclusive: -15.7%

Cc1nnc(SCC(=O)Nc2cccc(C(F)(F)F)c2)n1Cc1ccco1
activity change, negative = inhibition [1]: inconclusive: -19.9%

Cc1onc(-c2ccccc2)c1C(=O)Nc1ccc(S(=O)(=O)Nc2nccs2)cc1
activity change, negative = inhibition [1]: inconclusive: 10.7%

COc1ccc(CCN=C(N)NS(=O)(=O)c2ccc(C)cc2)cc1OC
Potency [1]: inconclusive: 11.2 µM [falling, partial curve]

CN(C)c1nc(Cl)cc(N2CCOCC2)n1
activity change, negative = inhibition [1]: inconclusive: -5.94%

CCOCCCNC(=O)c1cc2c(=O)[nH]c3ccccc3c2s1
activity change, negative = inhibition [1]: inactive

CSc1ccc(/C=N/N(C)S(=O)(=O)c2ccc(C)cc2)cc1
activity change, negative = inhibition [1]: inactive

O=C(c1ccccc1)N1N=C(c2ccccc2)CC1(O)C(F)(F)F (centres undefined)
activity change, negative = inhibition [1]: inconclusive: -15%

O=C(OCc1ccccc1F)c1cnc(Cl)c(Cl)c1
activity change, negative = inhibition [1]: inconclusive: 8.48%

O=C(CNC(=O)N1CC(=O)Nc2ccccc21)NCc1ccccc1Cl
activity change, negative = inhibition [1]: inactive

Cc1ccc(Oc2ccccc2)c(NC=O)c1
activity change, negative = inhibition [1]: inconclusive: -1.44%

CN(C)S(=O)(=O)c1ccc(C(=O)NCCSc2ccc(Br)cc2)cc1
Potency [1]: inconclusive: 29.1 µM [falling, partial curve, poor fit]

COc1ccc(C2(c3ccc(OC)cc3)NC(=O)N(CC(=O)Nc3ccc(C(N)=O)cc3)C2=O)cc1
activity change, negative = inhibition [1]: inconclusive: -1.78%

Cc1nn(CC(=O)Nc2sc3c(c2C#N)CCC(C(C)(C)C)C3)c(C)c1[N+](=O)[O-] (centres undefined)
activity change, negative = inhibition [1]: inactive

C=CCN(c1ccccc1)S(=O)(=O)c1cccc(C(=O)NCC(c2ccc(F)cc2)N2CCOCC2)c1 (centres undefined)
activity change, negative = inhibition [1]: inconclusive: -0.779%

N#CC1=C(SCC(N)=O)NC(=O)CC1c1ccccc1Cl (centres undefined)
Potency [1]: inconclusive: 2.31 µM [falling, full curve, poor fit]

Cc1cccc(NC(NC(=O)Cc2ccccc2)C(Cl)(Cl)Cl)c1 (centres undefined)
activity change, negative = inhibition [1]: inactive

O=C(CSc1nnc(CSc2nc3ccccc3s2)o1)NC1CCCCC1
activity change, negative = inhibition [1]: inconclusive: 5.64%

COc1cc(C(=O)NCC(c2ccccc2)N(C)C)ccc1OCc1c(C)noc1C (centres undefined)
activity change, negative = inhibition [1]: inactive

CCOC(=O)c1cc(-c2ccc(OC)cc2)n(CCC(=O)Nc2ccc(OC)cc2OC)c1C
activity change, negative = inhibition [1]: inconclusive: 7.18%

CCOC(=O)c1nn(-c2ccc([N+](=O)[O-])cc2)cc1O
activity change, negative = inhibition [1]: inconclusive: -0.844%

O=C1N[C@H](Cc2ccccc2)COC(=O)[C@@H](Cc2ccc(F)cc2)C/C=C\C[C@H]1CC(=O)N(CCO)Cc1ccccc1
activity change, negative = inhibition [1]: inconclusive: -1.07%

COc1ccc2nc(NC(=O)c3ccccc3C(=O)O)sc2c1
Potency [1]: inconclusive: 17.8 µM [falling, single point]

Nc1nc(SCC(=O)N2N=C(c3ccc(Cl)cc3)CC2c2ccco2)n[nH]1 (centres undefined)
Potency [1]: inconclusive: 17.8 µM [falling, single point]

CC(C)c1ccc(NC(=S)NCCc2c[nH]c3ccccc23)cc1
activity change, negative = inhibition [1]: inactive

Cc1cccc(-n2ncc3c(N4CCN(CCO)CC4)ncnc32)c1
activity change, negative = inhibition [1]: inactive

O=C1CC(c2ccccc2)CC(O)=C1C=NC1CCCC1 (centres undefined)
activity change, negative = inhibition [1]: inconclusive: -21.1%

O=C(Nc1nnc2n1CCS2)c1ccccc1
activity change, negative = inhibition [1]: inconclusive: -5.31%

O=C1c2cccc3cccc(c23)C(=O)N1OS(=O)(=O)c1ccccc1
activity change, negative = inhibition [1]: inconclusive: 2.34%

CN(C)CCNc1ncnc2c1sc1nc(-c3ccccc3)c3c(c12)CCCC3
Potency [1]: inconclusive: 22.4 µM [falling, single point]

Cc1ccc(C2CC2/C(=N/O)c2ccc(F)cc2)cc1 (centres undefined)
activity change, negative = inhibition [1]: inconclusive: 0.104%

COC(=O)c1ccc2c(=O)n(CCCCCC(=O)NC(C)C)c(=O)[nH]c2c1
activity change, negative = inhibition [1]: inconclusive: 24.5%
activity change, negative = inhibition (at 46.1 µM (top of the series)): inactive: 14.6%

Nc1ccnc(Oc2ccc(F)cc2)c1
activity change, negative = inhibition [1]: inconclusive: -0.615%

CCOc1ccc(C(O)(CCC(C)C)C(CN2CCOCC2)c2ccccc2)cc1 (centres undefined)
activity change, negative = inhibition [1]: inactive

C[C@@H]1CCC(=O)N(C[C@@H](C)CSc2ccc(Br)cc2)CC1
activity change, negative = inhibition [1]: inactive

COc1cc(CNCCc2ccccc2)cc(Cl)c1OCc1ccccc1
activity change, negative = inhibition [1]: inconclusive: -2.93%

COCC(=O)Nc1cc(C)cn(Cc2ccccc2Cl)c1=O
activity change, negative = inhibition [1]: inactive

COc1ccnc(-n2cccc2C#N)c1C#N
activity change, negative = inhibition [1]: inconclusive: -3.09%

O=C(O)C1CCN(C(=O)CCN2C(=O)S/C(=C\c3ccccc3)C2=O)CC1
activity change, negative = inhibition [1]: inconclusive: -7.01%

COc1ccc(N=Cc2cc(Cl)ccc2O)cc1Cl
Potency [1]: inconclusive: 35.5 µM [falling, single point]

Cc1cc2ccccc2nc1SCC(=O)Nc1nc(-c2ccccc2)cs1
Potency [1]: inconclusive: 10 µM [falling, partial curve]

Cc1cccc(C(=O)Nc2sc(C)c(-c3ccccc3)c2C#N)c1
activity change, negative = inhibition [1]: inconclusive: 0.982%

O=C(COc1ccc([N+](=O)[O-])cc1)N1CCN(c2nnc(-c3ccccc3)c3ccccc23)CC1
activity change, negative = inhibition [1]: inactive

C=CCN1C(=O)CSc2ccc(C(=O)NCc3cccs3)cc21
activity change, negative = inhibition [1]: inconclusive: 3.82%

Cc1ccc(-n2c(SCc3cn4ccsc4n3)nc3ccccc3c2=O)cc1
activity change, negative = inhibition [1]: inconclusive: 2.36%

Cc1ccc(/C=N/NC(=O)c2ccoc2C)s1
Potency [1]: inconclusive: 23.1 µM [falling, partial curve]

O=C(Nc1cccnc1)c1ccc(Br)s1
Potency [1]: inconclusive: 6.51 µM [rising, partial curve, poor fit]

O=CC1=C(c2ccccc2)Oc2ccccc2O1
activity change, negative = inhibition [1]: inconclusive: -0.497%

CC(C)(C)c1ccc(C(=O)NC(=S)N2CCCC2)cc1
Potency [1]: inconclusive: 20 µM [falling, partial curve, poor fit]

Fc1ccc(N=c2ssnc2Cl)c(F)c1
Potency [1]: inconclusive: 15.8 µM [falling, partial curve]

CC(Sc1nnc(NCc2ccccc2)s1)C(=O)Nc1ccc2c(c1)C(=O)c1ccccc1C2=O (centres undefined)
activity change, negative = inhibition [1]: inconclusive: 3.54%

CCN(CC(=O)Nc1c(F)cccc1F)C(=O)Cc1ccc2c(c1)CCC2
activity change, negative = inhibition [1]: inactive

Cc1c(C(=O)Nc2nnc(SCc3ccccc3Cl)s2)cccc1[N+](=O)[O-]
activity change, negative = inhibition [1]: inconclusive: 5.4%

O=C(NCc1ccc2c(c1)OCO2)c1cc(-c2ccccc2Cl)on1
Potency [1]: inconclusive: 11.2 µM [falling, partial curve, poor fit]

Cc1cc(C)nc(N(C#N)Cc2cccc3ccccc23)n1
Potency [1]: inconclusive: 29.1 µM [falling, single point]

O=C(CN1CCCCC1)Nc1cccc2c1OCO2
Potency [1]: inconclusive: 6.51 µM [rising, single point]

NC(=S)N=Nc1c(O)[nH]c2ccc(F)cc12
activity change, negative = inhibition [1]: inactive

COc1ccc(C2CC(C(F)(F)F)n3nc(C(N)=O)c(Cl)c3N2)cc1OC (centres undefined)
activity change, negative = inhibition [1]: inactive

N/C(=N\OC(=O)c1ccc(Cl)c(Cl)c1)c1cccnc1
activity change, negative = inhibition [1]: inconclusive: 12.5%

COc1ccccc1N1CCN(c2nc3ccccn3c(=O)c2C=O)CC1
activity change, negative = inhibition [1]: inconclusive: -16.8%

Cc1ccc(-n2c(SCC(=O)N3CCN(c4ccccn4)CC3)nnc2N2CCCC2)cc1
activity change, negative = inhibition [1]: inconclusive: -0.106%

COc1ccc(C(=O)Nc2ccc3c(c2)OCCO3)cc1[N+](=O)[O-]
activity change, negative = inhibition [1]: inconclusive: -28.6%

O=C(Nc1ccc(NC(=O)c2ccccc2Cl)nc1)c1ccco1
Potency [1]: inconclusive: 11.2 µM [falling, partial curve, poor fit]
